The target of assay [1] is RSV-A F (RSV A). The assay is described as follows: post stress affinity.
Assay [2] deals with RSV-B F (RSV B). The assay is described as follows: post stress affinity.
The target of assay [3] is RSV-B F (RSV B). The experiment in a line: post stress RSV B F protein binding.
In assay [4] the target is RSV B F protein, China 2014 strain (RSV B, China 2014 strain). The experiment in a line: post stress RSV B F protein binding.
Assay [5] deals with RSV F B S443P (RSV B). The assay is described as follows: post stress RSV B F protein binding.
The target in assay [6] is QQV74443.1_hMPV_China_2011 (human metapneumovirus). The assay is described as follows: FACS on Expi293F cells transiently transfected with the F protein; heat map, scale 20-100.
Assay [7] has as its target QDA18363.1_hMPV_Nepal_2012 (human metapneumovirus). The assay is described as above.
Assay [8] deals with QDA18360.1_hMPV_Nepal_2013 (human metapneumovirus). Described as above.
The target of assay [9] is QDA18352.1_hMPV_Nepal_2013 (human metapneumovirus). The description is as above.
For assay [10], the target named is BBB34997.1_hMPV_Japan_2013 (human metapneumovirus). The assay is described as above.
Assay [11] addresses AGJ74228.1_hMPV_Australia_2003 (human metapneumovirus). Described as above.
The target in assay [12] is BAM37601.1_hMPV_Japan_2008 (human metapneumovirus). The assay is described as above.
Assay [13] addresses QRM13862.1_hMPV_China_2017 (human metapneumovirus). The description is as above.
Assay [14] concerns the target AHV79446.1_hMPV_Peru_2011 (human metapneumovirus). The assay is described as above.
In assay [15] the target is AGJ74087.1_hMPV_Australia_2003 (human metapneumovirus). The description is as above.
The target in assay [16] is AGT75033.1_hMPV_Australia_2004 (human metapneumovirus). Described as above.
The target of assay [17] is QDA18379.1_hMPV_Nepal_2012 (human metapneumovirus). Described as above.
For assay [18], the target named is HMPV_Yokohama/JPN(P8527)2016 (human metapneumovirus). The assay is described as above.
The target of assay [19] is AUF72427.1_hMPV_USA_2016 (human metapneumovirus). The assay is described as above.

Binding data for six molecules are collected here from patent publication US20260028391A1.

These are yes or no findings as the source states them, for the method shown. For some assays here: Binding can be weak; no strength is given.

B1: MPK201-v1.2 (antibody, V domains shown)
VH: EVQLVQSGAEVKKPGESLKISCQGSGYSFINYWIGWVRQKPGKGLEWMGIIYPFDSETKYSPSFQGHVTFSADKSINTAYVQWSSLRASDTAMYYCARFTFGLAVTTADVSGEGQAFEIWGQGTMVTVSS
VL: QIVMMQSPATLSVSPGERATLSCRASQSVAGNLAWYQQRPGQAPRLLVYGASTRASGVPARFSGSGSETEFTLTISSLQSEDFAVYYCHHYSDLPQAFGQGTRLDIK
With B1, the binding entry in assay [1] and in [2] was “binds” each time.

B2: MPK65-v2-v1.2 (antibody, V domains shown)
VH: QVPLVQSGAEVKKPGESLKISCKGSGYSFINYWIGWVRQMPGKGLEWMGVIYPFDSDTKYSPSFQGHVTISADKSSNTAYVQWSSLKASDTAMYYCARFTFGIAVVTDDVSGEGQAFEIWGQGTMVTVSS
VL: QIVMMQSPATLSVSPGERATLSCRASQSVAGNLAWYQQRPGQAPRLLIYGASTRATGVPARFSGSGSETEFTLTISSLQSEDFAVYYCHQYSNLPQAFGQGTRLDIK
As to B2, the binding entry in assay [1], in [2] and in assay [3] was “binds” throughout.

B3: MPK201-v4.1 (antibody, V domains shown)
VH: QVQLVQSGAEVKKPGESLKISCQGSGYSFISYWIGWVRQKPGKGLEWMGIIYPFDSETKYSPSFQGHVTFSADKSINTAYVQWSSLRASDTAMYYCARFTFGLAVTTADVSGEGQAFEIWGQGTMVTVSS
VL: EIVMMQSPATLSVSPGERATLSCRASQSVAGNLAWYQQRPGQAPRLLVYGASTRASGVPARFSGSGSETEFTLTISSLQSEDFAVYYCHHYSDWPQAFGQGTRLDIK
For B3, the binding entry in [1] and in [2] was “binds” throughout.

B4: MPK176-v1.3 (antibody, V domains shown)
VH: QVQLVQSGAEVKKPGASVRVSCKASGYTLTAYGISWVRQAPGQGLEWMGWISPKHGNTHYAQRFQGRVTMTTDTSTSTAYMELRSLRPDDTAVYFCAREGVDIMAVPWYFDYWGQGTLVAVSS
VL: SYVLTQPPSVSVAPGQTARISCGGNNIGSKSVHWYQQKPGQAPVVVVYDDSKRPSGIPERFSGSNSGNTATLTISGVEAGDEADYFCQVWDSATDHWVFGGGTKLTVL
As for B4, the binding entry in assay [1], in assay [2], in assay [4] and in assay [5] was “binds” in each case.

B5: MPK176-v4.3 (antibody, V domains shown)
VH: QVQLVQSGAEVKKPGASVRVSCKASGYTLTAYGISWVRQAPGQGLEWMGWISPKHGSTHYAQRFQGRVTMTTDTSTSTAYMELRSLRPDDTAVYFCAREGVDIMAVPWYFDYWGQGTLVAVSS
VL: SYVLTQPPSVSVAPGQTARISCGGNNIGSKSVHWYQQKPGQAPVVVVYDDSKRPSGIPERFSGSNSGNTATLTISGVEAGDEADYFCQVWDSATDHWVFGGGTKLTVL
Consider B5, for which the binding entry in [1], in assay [2], in assay [4] and in [5] was “binds” each time.

B6: MPK146 (antibody, V domains shown)
VH: QVQLVESGGGLVKPGGSLRLSCAASGFTFSGYYMIWIRQAPGKGLEWIASISGSSNYIDYADSVRGRFTISRDNARNILDLQMNSLRAGDTALYYCATEQVPSPGPFDLWGQGTLVTVSS
VL: QSVLTQPPSVSGAPGQRVTISCTGSNSNLGAGYDVHWYQQFPGTSPKLLIYRNTNRPSGVPDRFAGSKSGTSASLAITGLQAEDEADYYCQSYDRSLSGWVFGGGTKLTVL
Regarding B6, the binding entry in assay [6] is recorded as “binds”; in assay [7], “no binding (tested: not given)”; in assay [8], “binds”; in assay [9], “binds”; in assay [10] it was “binds”; in assay [11] it was “binds”. Besides, the binding result in assay [12] is listed as “no binding (tested: not given)”; in [13], “binds”; in assay [14], “binds”; in assay [15], “binds”; in assay [16] it was “binds”; in [17], “binds”. Further, the binding result in assay [18] is on record as “no binding (tested: not given)”; in assay [19] it was “binds”.
